This is one part of the list.
Legend:
Test in all cases: log2 fold change, soluble protein after heating vs DMSO (PISA); higher = thermal stabilisation; K562 lysate, 10 uM; active = over 0.2 and 3.5 SD of the protein, either way, in both replicates (recomputed)
[1] = compound: C#Cc1cccc(Nc2ncnc3cc(OCCOC)c(OCCOC)cc23)c1 [erlotinib]
Summary of the method: (§1)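 K562 pellets were dounce-homogenised in PBS pH 7.4 containing 1 mM MgCl2, and the crude extract, at 1 mg/mL protein, was exposed to 10 μM compound for 30 min. Aliquots were heated for 3 min across 48°C-58°C, pooled, brought to 0.5% NP-40 at 4°C and spun at 21,000xg for 90 min, with the supernatant taken as soluble protein. TMTpro 16plex LC-MS/MS with equalised channel sums quantified that protein. Values are log-two fold changes in thermal stability relative to solvent controls, taken from duplicates.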

The chains behind the UniProt entries cited, without tags or fusion partners. Where a name states a change or a piece, a line headed by the entry shows the natural chain unless it says otherwise.
UniProt Q9Y3D2: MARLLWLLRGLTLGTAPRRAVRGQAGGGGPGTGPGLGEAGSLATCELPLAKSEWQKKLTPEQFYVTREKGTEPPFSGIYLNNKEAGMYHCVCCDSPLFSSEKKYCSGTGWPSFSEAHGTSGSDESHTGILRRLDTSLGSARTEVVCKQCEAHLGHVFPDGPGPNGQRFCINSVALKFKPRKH
UniProt P00156: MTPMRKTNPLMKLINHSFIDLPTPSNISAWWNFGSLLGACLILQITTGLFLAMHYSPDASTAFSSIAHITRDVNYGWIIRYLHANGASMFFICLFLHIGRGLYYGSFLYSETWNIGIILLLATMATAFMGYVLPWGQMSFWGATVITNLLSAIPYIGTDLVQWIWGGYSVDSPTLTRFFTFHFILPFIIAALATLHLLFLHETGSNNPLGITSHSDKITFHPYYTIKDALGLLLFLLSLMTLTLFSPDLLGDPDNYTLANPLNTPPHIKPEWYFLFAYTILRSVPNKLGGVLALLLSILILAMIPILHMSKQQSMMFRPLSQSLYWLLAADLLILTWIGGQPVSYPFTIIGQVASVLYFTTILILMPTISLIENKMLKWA
UniProt Q9Y2Z2: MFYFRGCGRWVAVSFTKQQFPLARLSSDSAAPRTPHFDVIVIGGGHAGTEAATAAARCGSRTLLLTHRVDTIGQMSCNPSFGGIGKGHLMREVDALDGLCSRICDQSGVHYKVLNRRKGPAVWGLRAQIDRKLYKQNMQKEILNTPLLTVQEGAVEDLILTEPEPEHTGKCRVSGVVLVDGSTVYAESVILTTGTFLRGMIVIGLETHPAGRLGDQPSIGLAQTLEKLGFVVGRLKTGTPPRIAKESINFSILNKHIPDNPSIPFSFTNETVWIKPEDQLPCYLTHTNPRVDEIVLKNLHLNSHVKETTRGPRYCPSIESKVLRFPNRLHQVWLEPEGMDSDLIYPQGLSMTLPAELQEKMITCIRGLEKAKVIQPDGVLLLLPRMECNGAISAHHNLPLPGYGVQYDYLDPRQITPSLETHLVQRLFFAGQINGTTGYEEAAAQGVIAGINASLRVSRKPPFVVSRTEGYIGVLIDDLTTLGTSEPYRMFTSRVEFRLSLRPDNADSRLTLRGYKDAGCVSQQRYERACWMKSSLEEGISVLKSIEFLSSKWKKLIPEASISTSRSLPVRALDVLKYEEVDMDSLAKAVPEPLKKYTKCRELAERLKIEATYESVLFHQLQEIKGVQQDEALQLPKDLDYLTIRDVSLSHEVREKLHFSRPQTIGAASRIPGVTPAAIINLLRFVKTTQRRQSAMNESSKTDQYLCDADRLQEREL
UniProt O75431: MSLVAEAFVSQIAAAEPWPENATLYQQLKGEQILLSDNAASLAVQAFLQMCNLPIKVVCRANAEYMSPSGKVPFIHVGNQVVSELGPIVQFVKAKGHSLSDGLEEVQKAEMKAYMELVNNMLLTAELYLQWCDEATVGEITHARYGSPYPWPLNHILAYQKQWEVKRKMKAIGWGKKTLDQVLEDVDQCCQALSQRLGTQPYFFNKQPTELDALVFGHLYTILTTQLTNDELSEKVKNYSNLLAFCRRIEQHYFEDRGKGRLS
UniProt P03886, whole entry, looked up: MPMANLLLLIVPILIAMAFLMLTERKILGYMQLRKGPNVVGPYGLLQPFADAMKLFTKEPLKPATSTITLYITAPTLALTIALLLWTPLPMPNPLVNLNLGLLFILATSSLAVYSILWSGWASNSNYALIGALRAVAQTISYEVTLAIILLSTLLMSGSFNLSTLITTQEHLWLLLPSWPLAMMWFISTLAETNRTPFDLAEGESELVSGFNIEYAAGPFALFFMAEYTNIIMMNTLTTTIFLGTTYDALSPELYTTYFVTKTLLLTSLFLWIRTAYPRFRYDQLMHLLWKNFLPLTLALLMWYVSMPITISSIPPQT
UniProt Q15390: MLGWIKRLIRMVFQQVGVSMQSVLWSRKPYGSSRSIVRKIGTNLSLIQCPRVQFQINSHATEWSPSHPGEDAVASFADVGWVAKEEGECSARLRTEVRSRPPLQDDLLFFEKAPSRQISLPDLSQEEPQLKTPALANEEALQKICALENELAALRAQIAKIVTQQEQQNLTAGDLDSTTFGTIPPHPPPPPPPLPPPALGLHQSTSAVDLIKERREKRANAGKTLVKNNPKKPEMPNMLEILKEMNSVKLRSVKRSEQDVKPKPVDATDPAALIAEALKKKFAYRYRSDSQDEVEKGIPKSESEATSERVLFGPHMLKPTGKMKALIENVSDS
UniProt Q8NCE2: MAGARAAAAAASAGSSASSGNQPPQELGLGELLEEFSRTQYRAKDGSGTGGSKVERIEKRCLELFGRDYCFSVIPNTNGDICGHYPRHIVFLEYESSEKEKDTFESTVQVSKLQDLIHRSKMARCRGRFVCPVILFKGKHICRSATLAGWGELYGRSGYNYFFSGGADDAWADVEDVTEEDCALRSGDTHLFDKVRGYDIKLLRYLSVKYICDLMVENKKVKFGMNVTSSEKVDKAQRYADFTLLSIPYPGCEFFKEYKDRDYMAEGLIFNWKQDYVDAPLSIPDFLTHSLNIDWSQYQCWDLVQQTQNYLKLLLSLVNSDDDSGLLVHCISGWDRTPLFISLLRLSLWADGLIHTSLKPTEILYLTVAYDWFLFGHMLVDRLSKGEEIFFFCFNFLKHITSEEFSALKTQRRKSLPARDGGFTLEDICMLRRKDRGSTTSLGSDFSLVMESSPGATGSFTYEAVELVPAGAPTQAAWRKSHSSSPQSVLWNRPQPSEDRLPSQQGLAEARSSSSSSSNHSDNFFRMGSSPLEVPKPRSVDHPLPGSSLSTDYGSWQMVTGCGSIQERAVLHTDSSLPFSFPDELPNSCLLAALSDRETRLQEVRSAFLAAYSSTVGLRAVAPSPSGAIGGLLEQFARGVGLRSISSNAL
UniProt Q86UE4: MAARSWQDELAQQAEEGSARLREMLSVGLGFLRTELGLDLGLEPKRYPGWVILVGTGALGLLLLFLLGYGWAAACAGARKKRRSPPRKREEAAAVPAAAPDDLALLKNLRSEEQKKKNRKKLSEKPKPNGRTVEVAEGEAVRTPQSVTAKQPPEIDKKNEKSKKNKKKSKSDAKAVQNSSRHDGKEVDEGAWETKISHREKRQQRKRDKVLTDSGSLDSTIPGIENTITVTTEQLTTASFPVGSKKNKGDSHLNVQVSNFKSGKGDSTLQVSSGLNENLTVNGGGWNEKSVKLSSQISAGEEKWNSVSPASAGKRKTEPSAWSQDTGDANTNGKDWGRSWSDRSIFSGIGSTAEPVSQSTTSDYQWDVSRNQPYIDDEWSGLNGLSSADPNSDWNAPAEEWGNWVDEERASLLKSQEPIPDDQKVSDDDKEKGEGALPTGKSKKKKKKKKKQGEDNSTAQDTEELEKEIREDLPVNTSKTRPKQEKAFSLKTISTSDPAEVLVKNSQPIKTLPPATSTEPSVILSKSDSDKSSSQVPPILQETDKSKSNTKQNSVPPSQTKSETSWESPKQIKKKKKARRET

[2] = compound: C/C(=N\NC(=O)C1=CC(=CC=C1)S(=O)(=O)N2CCOCC2)/C3=C(C=CC(=C3)Cl)O
Summary of the method: as §1

[3] = compound: C1=CC(=CC=C1C2=NC3=C(N2)C=C(C=C3)C(=O)N)OC4=CC=C(C=C4)Cl
Summary of the method: as §1

[4] = compound: C1=CC2=C(C=CC(=C2)/C=C\3/C(=O)NC(=NCC4=CC=CS4)S3)N=C1
Summary of the method: as §1

[5] = compound: C1=CC2=NC=CN=C2C=C1/C=C/3\C(=O)NC(=O)S3
Summary of the method: as §1

[6] = compound: C1=CC=C(C=C1)C2=NC(=C(N2)C3=CC=NC=C3)C4=CC(=C(C=C4)Cl)O
Summary of the method: as §1

[7] = compound: C1=CC=C2C(=C1)C3=NNC4=CC=CC(=C43)C2=O
Summary of the method: as §1

[8] = compound: C1CCN(C1)C(=O)NC2=CC=CC(=C2)NC3=NC=C(C(=N3)NCCC4=CN=CN4)Br
Summary of the method: as §1

[9] = compound: C1CN(CCC1(CC2=CC=C(C=C2)Cl)N)C3=NC=NC4=C3C=CN4
Summary of the method: as §1

[10] = compound: C1COCCN1CCN2C3=CC=CC=C3N=C2NC(=O)C4=CC(=CC=C4)[N+](=O)[O-] [IRAK-1-4 Inhibitor I]
Summary of the method: as §1

[11] = compound: C=CC(=O)N1CCC[C@@H](n2nc(-c3ccc(Oc4ccccc4)cc3)c3c(N)ncnc32)C1 [ibrutinib]
Summary of the method: as §1

[12] = compound: CC(=O)c1cnc2ccc(-c3cc(Cl)c(O)c(Cl)c3)nc2c1N[C@H]1CC[C@H](CN(C)C)CC1
Summary of the method: as §1

[13] = compound: CC(C)(C)Cn1c(N)nc2ccc(-c3[nH]c(C(C)(C)C)nc3-c3ccc(F)cc3)nc21 [ralimetinib]
Summary of the method: as §1

[14] = compound: CC(C)(O)CC(=O)NCCn1ccc2ncnc(Nc3ccc(Oc4cccc(C(F)(F)F)c4)c(Cl)c3)c21
Summary of the method: as §1

[15] = compound: CC(C)C1=C2N=C(C=C(N2N=C1)NCC3=CC=CC=C3)NCCCCCCN
Summary of the method: as §1

[16] = compound: CC1=C(C(CC(=O)N1)C2=CC=C(C=C2)C(F)(F)F)C(=O)NC3=C(C=C4C(=C3)C=NN4)F
Summary of the method: as §1

[17] = compound: CC1=C(C2=C(C=C1)C(=O)C3=CC=CC=C3N2CCCN)C
Summary of the method: as §1

[18] = compound: CC1=C(C=C(C=C1)NC(=O)C2=CC(=CC=C2)C(C)(C)C#N)NC3=CC4=C(C=C3)N=CN(C4=O)C
Summary of the method: as §1

[19] = compound: CC1=C(C=C(C=C1)NC(=O)C2=CC(=CC=C2)N(C)C)NC(=O)C3=CC=C(C=C3)O
Summary of the method: as §1

[20] = compound: CC1=CC=C(C=C1)SC2=C3C=C(SC3=CN=C2)C(=O)N
Summary of the method: as §1

Measured: log2 fold change

MRPS23 (UniProt Q9Y3D9)
inactive: [1] 0.013 | [2] 0.072 | [3] -0.015 | [4] 0.004 | [5] -0.02 | [6] 0.008 | [7] -0.041 | [8] 0.005 | [9] 0.038 | [10] -0.008 | [11] 0.035 | [12] 0.017 | [13] -0.038 | [14] 0.021 | [15] 0.036 | [16] -0.042 | [17] -0.029 | [18] -0.06 | [19] -0.017 | [20] 0.064

MSRB2 (UniProt Q9Y3D2)
inactive: [1] 0.01 | [2] 0.106 | [3] -0.041 | [4] 0.084 | [5] 0.019 | [6] 0.069 | [7] 0.07 | [8] -0.084 | [9] 0.046 | [10] 0.015 | [11] 0.067 | [12] 0.078 | [13] -0.007 | [14] 0.002 | [15] 0.002 | [16] 0.057 | [17] -0.035 | [18] 0.007 | [19] 0.013 | [20] -0.042

MT-CYB (UniProt P00156)
inactive: [1] 0.076 | [2] 0.141 | [3] 0.027 | [4] 0.024 | [5] 0.015 | [6] -0.229 | [7] 0.126 | [8] -0.105 | [9] 0.025 | [10] 0.028 | [11] 0.133 | [12] -0.055 | [13] 0.001 | [14] -0.064 | [15] -0.094 | [16] 0.03 | [17] -0.107 | [18] 0.039 | [19] -0.093 | [20] 0.198

MTO1 isoform 4 (UniProt Q9Y2Z2)
inactive: [1] -0.047 | [2] -0.115 | [3] -0.053 | [4] -0.044 | [5] -0.058 | [6] 0.067 | [7] 0.039 | [8] -0.075 | [9] 0.101 | [10] 0.031 | [11] 0.11 | [13] 0.001 | [14] -0.045 | [15] 0.04 | [16] 0.136 | [17] -0.076 | [18] 0.019 | [19] 0.008

MRPL9 (UniProt Q9BYD2)
inactive: [1] 0.074 | [2] -0.088 | [3] -0.015 | [4] 0.028 | [5] -0.016 | [6] 0.027 | [7] 0.005 | [8] -0.074 | [9] 0.022 | [10] 0.003 | [11] -0.035 | [12] 0.002 | [13] -0.065 | [14] -0.015 | [15] 0.02 | [16] -0.007 | [17] -0.033 | [18] 0.061 | [19] -0.012 | [20] -0.028

MRPL43 isoform 4 (UniProt Q8N983)
inactive: [1] -0.046 | [2] 0.027 | [3] -0.01 | [4] 0.016 | [5] 0.013 | [6] 0.023 | [7] -0.023 | [8] -0.036 | [9] 0.014 | [10] 0.025 | [11] 0.036 | [12] -0.037 | [13] -0.031 | [14] -0.01 | [15] 0.011 | [16] 0.059 | [17] 0.008 | [18] -0.059 | [19] -0.004 | [20] -0.013

MRPS33 (UniProt Q9Y291)
inactive: [1] 0.047 | [2] -0.049 | [3] -0.034 | [4] 0.02 | [5] -0.07 | [6] -0.09 | [7] 0.018 | [8] 0.026 | [9] -0.017 | [10] -0.159 | [11] -0.043 | [12] 0.014 | [13] 0.028 | [14] -0.036 | [15] 0.05 | [16] -0.103 | [17] -0.06 | [18] -0.121 | [19] -0.023 | [20] 0.073

MTX2 (UniProt O75431)
inactive: [1] 0.034 | [2] 0.028 | [3] 0.007 | [4] -0.015 | [5] 0.012 | [6] -0.017 | [7] -0.084 | [8] -0.007 | [9] 0.031 | [10] -0.015 | [11] 0.051 | [12] 0.014 | [13] -0.001 | [14] -0.003 | [15] 0.003 | [16] -0.018 | [17] 0.021 | [18] -0.014 | [19] 0.007 | [20] -0.003

MRPL50 (UniProt Q8N5N7)
inactive: [1] 0.059 | [2] -0.041 | [3] 0.031 | [4] 0.017 | [5] -0.029 | [6] -0.123 | [7] -0.025 | [8] -0.008 | [9] 0.094 | [10] 0.032 | [11] 0.094 | [12] -0.073 | [13] 0.021 | [14] -0.067 | [15] -0.038 | [16] -0.062 | [17] -0.002 | [18] 0.084 | [19] -0.041 | [20] 0.031

MT-ND1 (UniProt P03886)
inactive: [1] -0.061 | [2] -0.227 | [3] -0.14 | [4] 0.055 | [5] -0.036 | [6] -0.005 | [7] 0.061 | [8] -0.038 | [9] 0.02 | [10] 0.004 | [11] 0.032 | [12] -0.006 | [13] 0.061 | [14] -0.101 | [15] -0.052 | [16] 0.056 | [17] -0.007 | [18] 0.055 | [19] -0.005 | [20] 0.088

Quoted from the entries so far (three entries):
MTX2 (UniProt O75431)
inactive: [1] 0.034 | [2] 0.028 | [3] 0.007 | [4] -0.015 | [5] 0.012 | [6] -0.017 | [7] -0.084 | [8] -0.007 | [9] 0.031 | [10] -0.015 | [11] 0.051 | [12] 0.014 | [13] -0.001 | [14] -0.003 | [15] 0.003 | [16] -0.018 | [17] 0.021 | [18] -0.014 | [19] 0.007 | [20] -0.003

MRPL50 (UniProt Q8N5N7)
inactive: [1] 0.059 | [2] -0.041 | [3] 0.031 | [4] 0.017 | [5] -0.029 | [6] -0.123 | [7] -0.025 | [8] -0.008 | [9] 0.094 | [10] 0.032 | [11] 0.094 | [12] -0.073 | [13] 0.021 | [14] -0.067 | [15] -0.038 | [16] -0.062 | [17] -0.002 | [18] 0.084 | [19] -0.041 | [20] 0.031

MT-ND1 (UniProt P03886)
inactive: [1] -0.061 | [2] -0.227 | [3] -0.14 | [4] 0.055 | [5] -0.036 | [6] -0.005 | [7] 0.061 | [8] -0.038 | [9] 0.02 | [10] 0.004 | [11] 0.032 | [12] -0.006 | [13] 0.061 | [14] -0.101 | [15] -0.052 | [16] 0.056 | [17] -0.007 | [18] 0.055 | [19] -0.005 | [20] 0.088

(further entries)

MTFR1 (UniProt Q15390)
inactive: [1] 0.067 | [2] 0.006 | [3] -0.004 | [4] 0.05 | [5] -0.058 | [6] -0.016 | [7] -0.052 | [8] -0.033 | [9] -0.014 | [10] 0.008 | [11] 0.036 | [12] 0.022 | [13] -0.01 | [14] -0.067 | [15] 0.018 | [16] 0.105 | [17] 0.001 | [18] 0 | [19] 0.038 | [20] -0.044

MRPL33 (UniProt O75394)
inactive: [1] 0.063 | [2] -0.362 | [3] -0.033 | [4] 0.184 | [5] -0.072 | [6] 0.105 | [7] -0.016 | [8] -0.077 | [9] 0.213 | [10] -0.087 | [11] -0.006 | [12] 0.018 | [13] 0.03 | [14] -0.183 | [15] -0.022 | [16] -0.204 | [17] 0.01 | [18] -0.056 | [19] -0.128 | [20] 0.002

MTMR14 (UniProt Q8NCE2)
inactive: [1] 0.018 | [2] -0.015 | [3] -0.004 | [4] -0.005 | [5] 0.004 | [6] -0.012 | [7] -0.011 | [8] -0.032 | [9] 0.017 | [10] 0.001 | [11] -0.001 | [12] 0.042 | [13] -0.02 | [14] -0.093 | [15] -0.01 | [16] 0.031 | [17] 0.013 | [18] -0.007 | [19] -0.003 | [20] -0.007

MRPL42 (UniProt Q9Y6G3)
inactive: [1] 0.009 | [2] -0.01 | [3] -0.03 | [4] 0.016 | [5] 0.01 | [6] 0.029 | [7] -0.176 | [8] -0.023 | [9] -0.144 | [10] -0.064 | [11] 0.061 | [12] 0.03 | [13] 0.021 | [14] -0.087 | [15] -0.016 | [16] 0.07 | [17] -0.104 | [18] 0.048 | [19] 0.015 | [20] 0.038

MRPS9 (UniProt P82933)
inactive: [1] 0.002 | [2] 0.009 | [3] 0.092 | [4] 0.015 | [5] 0.002 | [6] -0.025 | [7] -0.047 | [8] -0.044 | [9] 0.075 | [10] -0.002 | [11] 0.041 | [12] -0.03 | [13] -0.01 | [14] 0.015 | [15] 0.042 | [16] 0.009 | [17] -0.062 | [18] -0.007 | [19] 0.039 | [20] 0.034

MTDH (UniProt Q86UE4)
inactive: [1] -0.014 | [2] -0.033 | [3] 0.036 | [4] 0.003 | [5] -0.018 | [6] -0.021 | [7] -0.026 | [8] 0.023 | [9] 0.004 | [10] -0.006 | [11] 0.012 | [12] -0.009 | [13] 0.01 | [14] -0.015 | [15] 0.01 | [16] 0.006 | [17] -0.036 | [18] 0.007 | [19] 0.007 | [20] -0.018

Reference: the supplement of paper PMC10849652
